Data as given in PMC11130243.
No constants are given. Whether binding was seen depends on the method and setting. Binding seen in cells or lysates may run through a third protein. A yes stands for co-enrichment or nearness to the bait. Other partners may have been found. For some of these results: Where a sequence is shown, tags or fusion partners need not be part of it. Blank lines part the entries; values can stand above or below the substance they belong to.

Protein sequences, listed by entry. Tags and fused reporters are not part of them. Residues count along the entry.
UniProt P52630: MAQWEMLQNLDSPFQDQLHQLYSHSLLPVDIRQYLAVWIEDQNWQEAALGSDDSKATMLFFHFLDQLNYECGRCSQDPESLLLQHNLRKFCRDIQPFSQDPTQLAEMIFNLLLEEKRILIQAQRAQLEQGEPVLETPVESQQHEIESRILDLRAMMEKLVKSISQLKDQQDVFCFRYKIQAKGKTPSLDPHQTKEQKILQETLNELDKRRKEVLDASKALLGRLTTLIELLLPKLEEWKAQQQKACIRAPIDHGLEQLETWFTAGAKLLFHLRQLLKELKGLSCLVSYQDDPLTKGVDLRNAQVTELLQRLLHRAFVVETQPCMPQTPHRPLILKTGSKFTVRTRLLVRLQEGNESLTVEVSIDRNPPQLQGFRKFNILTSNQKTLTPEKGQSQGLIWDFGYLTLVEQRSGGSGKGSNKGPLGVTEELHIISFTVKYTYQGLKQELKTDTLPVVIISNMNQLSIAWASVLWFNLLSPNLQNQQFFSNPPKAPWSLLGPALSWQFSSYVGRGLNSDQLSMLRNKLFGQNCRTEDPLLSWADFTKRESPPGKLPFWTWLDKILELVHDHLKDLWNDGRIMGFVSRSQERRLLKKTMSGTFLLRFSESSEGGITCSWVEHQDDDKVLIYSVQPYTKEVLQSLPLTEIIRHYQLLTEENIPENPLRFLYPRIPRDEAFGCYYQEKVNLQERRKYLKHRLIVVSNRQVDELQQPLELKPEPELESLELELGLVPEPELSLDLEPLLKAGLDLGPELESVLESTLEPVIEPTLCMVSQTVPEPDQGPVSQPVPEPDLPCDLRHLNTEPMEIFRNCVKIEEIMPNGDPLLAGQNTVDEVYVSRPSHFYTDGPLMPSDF
UniProt P42224: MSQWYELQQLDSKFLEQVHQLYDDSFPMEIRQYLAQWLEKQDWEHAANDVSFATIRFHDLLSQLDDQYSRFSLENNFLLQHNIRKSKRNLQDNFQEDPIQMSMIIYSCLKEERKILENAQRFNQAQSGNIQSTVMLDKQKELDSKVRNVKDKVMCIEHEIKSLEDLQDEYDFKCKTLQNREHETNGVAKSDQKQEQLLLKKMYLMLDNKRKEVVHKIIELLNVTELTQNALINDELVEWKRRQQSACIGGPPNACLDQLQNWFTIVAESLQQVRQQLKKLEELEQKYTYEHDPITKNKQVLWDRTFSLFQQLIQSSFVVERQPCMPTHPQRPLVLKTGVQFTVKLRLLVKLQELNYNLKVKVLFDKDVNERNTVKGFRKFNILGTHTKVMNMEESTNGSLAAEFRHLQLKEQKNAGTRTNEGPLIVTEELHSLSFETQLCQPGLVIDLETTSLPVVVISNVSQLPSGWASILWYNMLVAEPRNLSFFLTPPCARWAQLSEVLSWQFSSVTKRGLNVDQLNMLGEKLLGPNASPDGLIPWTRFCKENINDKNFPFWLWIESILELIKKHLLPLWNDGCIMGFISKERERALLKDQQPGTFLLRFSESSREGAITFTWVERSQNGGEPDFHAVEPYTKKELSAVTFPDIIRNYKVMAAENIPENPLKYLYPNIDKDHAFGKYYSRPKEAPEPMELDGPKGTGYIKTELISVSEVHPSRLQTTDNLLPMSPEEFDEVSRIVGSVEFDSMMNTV
UniProt O60884: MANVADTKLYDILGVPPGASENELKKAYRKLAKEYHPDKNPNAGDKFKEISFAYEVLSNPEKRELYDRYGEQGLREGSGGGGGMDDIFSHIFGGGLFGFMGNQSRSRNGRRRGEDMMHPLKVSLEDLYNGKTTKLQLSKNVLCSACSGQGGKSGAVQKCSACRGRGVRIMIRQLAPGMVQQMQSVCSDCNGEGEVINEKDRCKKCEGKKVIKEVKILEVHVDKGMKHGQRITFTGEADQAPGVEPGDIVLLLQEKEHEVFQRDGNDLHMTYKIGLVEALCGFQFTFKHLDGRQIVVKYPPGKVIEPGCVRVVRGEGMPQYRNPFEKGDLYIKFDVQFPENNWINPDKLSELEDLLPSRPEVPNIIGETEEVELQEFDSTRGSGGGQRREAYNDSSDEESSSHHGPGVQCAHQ
UniProt Q15717: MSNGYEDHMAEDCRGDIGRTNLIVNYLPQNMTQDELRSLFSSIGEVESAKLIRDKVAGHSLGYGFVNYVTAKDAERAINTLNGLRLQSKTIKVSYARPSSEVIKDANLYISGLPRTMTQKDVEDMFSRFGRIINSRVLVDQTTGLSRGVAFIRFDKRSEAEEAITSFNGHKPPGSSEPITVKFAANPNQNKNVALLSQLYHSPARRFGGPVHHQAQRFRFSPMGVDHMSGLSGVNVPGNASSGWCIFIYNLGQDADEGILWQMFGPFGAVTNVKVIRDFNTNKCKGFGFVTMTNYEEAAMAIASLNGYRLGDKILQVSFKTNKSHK
UniProt P40189, residues 23-918: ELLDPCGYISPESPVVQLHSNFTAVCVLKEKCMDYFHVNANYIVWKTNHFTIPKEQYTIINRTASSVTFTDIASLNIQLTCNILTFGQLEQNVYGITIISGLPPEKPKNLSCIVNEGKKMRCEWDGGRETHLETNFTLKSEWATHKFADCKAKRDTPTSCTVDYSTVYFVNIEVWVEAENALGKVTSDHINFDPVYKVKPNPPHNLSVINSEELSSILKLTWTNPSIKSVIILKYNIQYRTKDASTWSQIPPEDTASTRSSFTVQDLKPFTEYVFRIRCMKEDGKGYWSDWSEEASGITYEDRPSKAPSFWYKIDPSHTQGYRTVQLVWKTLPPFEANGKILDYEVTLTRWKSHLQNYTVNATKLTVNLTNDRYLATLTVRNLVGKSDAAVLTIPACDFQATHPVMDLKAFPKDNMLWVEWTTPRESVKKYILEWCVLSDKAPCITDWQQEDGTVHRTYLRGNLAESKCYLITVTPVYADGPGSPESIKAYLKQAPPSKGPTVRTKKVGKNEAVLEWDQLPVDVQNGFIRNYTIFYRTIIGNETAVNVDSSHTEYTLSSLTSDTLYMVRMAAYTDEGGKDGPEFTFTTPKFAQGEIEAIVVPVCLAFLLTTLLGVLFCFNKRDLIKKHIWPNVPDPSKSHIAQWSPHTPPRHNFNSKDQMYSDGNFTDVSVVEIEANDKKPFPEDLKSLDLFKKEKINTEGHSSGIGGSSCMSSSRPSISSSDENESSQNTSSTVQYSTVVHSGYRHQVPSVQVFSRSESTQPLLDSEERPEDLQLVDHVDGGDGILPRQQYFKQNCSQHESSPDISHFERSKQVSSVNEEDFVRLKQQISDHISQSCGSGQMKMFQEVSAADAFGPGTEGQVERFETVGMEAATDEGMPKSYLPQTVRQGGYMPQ
UniProt Q96L91: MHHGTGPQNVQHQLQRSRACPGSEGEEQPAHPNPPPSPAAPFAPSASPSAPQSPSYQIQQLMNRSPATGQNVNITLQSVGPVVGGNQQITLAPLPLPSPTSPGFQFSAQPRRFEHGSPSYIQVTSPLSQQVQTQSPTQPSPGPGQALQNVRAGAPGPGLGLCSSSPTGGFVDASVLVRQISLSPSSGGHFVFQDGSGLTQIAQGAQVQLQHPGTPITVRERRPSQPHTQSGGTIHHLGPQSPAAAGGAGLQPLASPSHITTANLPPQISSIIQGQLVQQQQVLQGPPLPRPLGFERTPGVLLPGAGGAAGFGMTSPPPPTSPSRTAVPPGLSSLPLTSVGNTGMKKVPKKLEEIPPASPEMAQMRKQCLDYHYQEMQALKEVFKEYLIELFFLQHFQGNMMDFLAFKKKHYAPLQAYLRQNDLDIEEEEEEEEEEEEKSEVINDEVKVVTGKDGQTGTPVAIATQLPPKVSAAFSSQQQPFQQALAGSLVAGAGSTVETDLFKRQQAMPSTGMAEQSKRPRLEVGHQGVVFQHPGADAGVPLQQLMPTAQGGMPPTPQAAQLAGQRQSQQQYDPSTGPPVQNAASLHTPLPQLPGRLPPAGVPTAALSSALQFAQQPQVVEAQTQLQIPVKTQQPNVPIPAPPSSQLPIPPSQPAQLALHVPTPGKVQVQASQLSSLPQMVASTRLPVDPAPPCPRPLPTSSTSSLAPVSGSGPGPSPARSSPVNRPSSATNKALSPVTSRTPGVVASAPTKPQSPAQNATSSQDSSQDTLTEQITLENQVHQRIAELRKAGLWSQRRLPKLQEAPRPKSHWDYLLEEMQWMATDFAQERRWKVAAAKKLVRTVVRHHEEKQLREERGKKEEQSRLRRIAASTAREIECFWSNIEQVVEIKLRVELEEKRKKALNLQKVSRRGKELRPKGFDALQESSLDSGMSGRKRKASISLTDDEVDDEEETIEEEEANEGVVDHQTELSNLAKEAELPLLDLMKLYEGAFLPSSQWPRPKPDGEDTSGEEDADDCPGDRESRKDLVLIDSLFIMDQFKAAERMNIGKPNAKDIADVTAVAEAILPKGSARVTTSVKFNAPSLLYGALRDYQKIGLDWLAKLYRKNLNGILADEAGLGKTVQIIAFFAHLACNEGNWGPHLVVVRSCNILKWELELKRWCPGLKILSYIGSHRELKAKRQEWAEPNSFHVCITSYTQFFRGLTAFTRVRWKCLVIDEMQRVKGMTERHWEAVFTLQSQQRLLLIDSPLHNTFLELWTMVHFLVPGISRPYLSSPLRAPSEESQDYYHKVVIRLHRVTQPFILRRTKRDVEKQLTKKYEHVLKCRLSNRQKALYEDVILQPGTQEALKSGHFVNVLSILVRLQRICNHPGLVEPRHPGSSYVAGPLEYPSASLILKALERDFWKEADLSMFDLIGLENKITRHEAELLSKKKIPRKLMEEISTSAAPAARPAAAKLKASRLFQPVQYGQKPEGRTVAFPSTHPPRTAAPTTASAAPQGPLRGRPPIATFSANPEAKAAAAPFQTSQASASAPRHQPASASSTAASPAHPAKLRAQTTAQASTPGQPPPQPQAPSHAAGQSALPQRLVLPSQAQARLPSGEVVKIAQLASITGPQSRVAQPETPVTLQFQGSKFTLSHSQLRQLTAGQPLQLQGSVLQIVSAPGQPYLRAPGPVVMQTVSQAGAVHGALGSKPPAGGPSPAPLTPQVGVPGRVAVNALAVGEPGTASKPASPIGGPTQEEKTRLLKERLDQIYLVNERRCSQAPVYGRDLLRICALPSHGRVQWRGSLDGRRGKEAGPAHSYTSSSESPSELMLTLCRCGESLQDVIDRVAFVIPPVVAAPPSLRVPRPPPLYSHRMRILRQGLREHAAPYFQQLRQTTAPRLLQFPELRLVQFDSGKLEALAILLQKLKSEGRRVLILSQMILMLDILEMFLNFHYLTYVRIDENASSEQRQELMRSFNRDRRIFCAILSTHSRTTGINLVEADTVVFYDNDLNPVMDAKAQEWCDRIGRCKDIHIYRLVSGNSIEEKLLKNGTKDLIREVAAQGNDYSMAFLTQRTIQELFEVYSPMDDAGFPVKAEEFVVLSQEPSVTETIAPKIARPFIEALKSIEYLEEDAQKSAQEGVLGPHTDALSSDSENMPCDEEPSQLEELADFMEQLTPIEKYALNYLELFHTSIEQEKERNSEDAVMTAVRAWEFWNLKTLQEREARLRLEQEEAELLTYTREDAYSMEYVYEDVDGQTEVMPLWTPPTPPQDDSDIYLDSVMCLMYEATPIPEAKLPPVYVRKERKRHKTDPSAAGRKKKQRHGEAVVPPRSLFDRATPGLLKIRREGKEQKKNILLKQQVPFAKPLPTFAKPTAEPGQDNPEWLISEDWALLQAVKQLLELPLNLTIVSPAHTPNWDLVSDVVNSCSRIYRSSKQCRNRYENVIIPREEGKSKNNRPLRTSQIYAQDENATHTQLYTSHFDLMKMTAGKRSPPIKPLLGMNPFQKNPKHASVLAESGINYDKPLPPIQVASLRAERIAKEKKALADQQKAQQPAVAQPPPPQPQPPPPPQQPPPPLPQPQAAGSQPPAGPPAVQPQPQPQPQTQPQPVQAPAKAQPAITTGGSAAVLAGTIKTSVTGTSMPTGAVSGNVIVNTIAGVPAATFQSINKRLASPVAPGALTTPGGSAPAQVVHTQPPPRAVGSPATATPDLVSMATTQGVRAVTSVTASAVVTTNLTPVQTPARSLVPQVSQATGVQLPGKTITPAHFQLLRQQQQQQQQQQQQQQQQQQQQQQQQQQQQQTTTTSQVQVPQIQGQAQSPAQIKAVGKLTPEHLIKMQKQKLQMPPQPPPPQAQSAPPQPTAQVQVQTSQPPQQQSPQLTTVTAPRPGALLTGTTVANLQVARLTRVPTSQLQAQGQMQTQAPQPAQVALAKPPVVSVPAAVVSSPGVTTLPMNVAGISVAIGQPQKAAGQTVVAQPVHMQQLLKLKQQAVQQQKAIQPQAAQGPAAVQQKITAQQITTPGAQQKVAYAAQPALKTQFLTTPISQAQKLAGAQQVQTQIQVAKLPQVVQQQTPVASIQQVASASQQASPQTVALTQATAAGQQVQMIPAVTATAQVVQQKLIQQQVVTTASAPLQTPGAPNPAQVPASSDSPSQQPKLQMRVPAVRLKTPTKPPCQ

Key:
[1] = target: TurboID-V5-TYK2 (stable in MRC-5/hTERT) (human) (UniProt P29597); assay: proximity labelling; independent small-scale TurboID experiments in MRC-5/hTERT lines performed as the screen; enriched biotinylated proteins (streptavidin pull-down) immunoblotted for the prey
[2] = target: TurboID-V5-JAK1 (stable in MRC-5/hTERT) (human) (UniProt P23458); assay: as above
[3] = target: TurboID-V5-TYK2 (stable in MRC-5/hTERT) (human) (UniProt P29597); assay: proximity labelling; TurboID-tagged bait stably expressed in MRC-5/hTERT; serum-starved 20 h; 1000 IU/mL IFN-α2 for 0, 20, 60 or 120 min; 500 μM biotin for the last 15 min; RIPA lysis; streptavidin magnetic beads; label-free mass spectrometry, SAINTexpress against the similarly localized TurboID-GFP control (FC ≥ 4 stringent or FC ≥ 2 relaxed)
[4] = target: TurboID-V5-JAK1 (stable in MRC-5/hTERT) (human) (UniProt P23458); assay: as above
TurboID-V5-STAT2 (human) [5] = target: TurboID-V5-STAT2 (human) (UniProt P52630); assay: as above
TurboID-V5-STAT1 (human) [6] = target: TurboID-V5-STAT1 (human) (UniProt P42224); assay: proximity labelling; independent small-scale TurboID experiments in MRC-5/hTERT lines performed as the screen; enriched biotinylated proteins (streptavidin pull-down) immunoblotted for the prey
TurboID-V5-STAT2 (human) [7] = target: TurboID-V5-STAT2 (human) (UniProt P52630); assay: as above
TurboID-V5-IRF9 (human) [8] = target: T1, TurboID-V5-IRF9 (human) (UniProt Q00978); assay: as above
T1 sequence: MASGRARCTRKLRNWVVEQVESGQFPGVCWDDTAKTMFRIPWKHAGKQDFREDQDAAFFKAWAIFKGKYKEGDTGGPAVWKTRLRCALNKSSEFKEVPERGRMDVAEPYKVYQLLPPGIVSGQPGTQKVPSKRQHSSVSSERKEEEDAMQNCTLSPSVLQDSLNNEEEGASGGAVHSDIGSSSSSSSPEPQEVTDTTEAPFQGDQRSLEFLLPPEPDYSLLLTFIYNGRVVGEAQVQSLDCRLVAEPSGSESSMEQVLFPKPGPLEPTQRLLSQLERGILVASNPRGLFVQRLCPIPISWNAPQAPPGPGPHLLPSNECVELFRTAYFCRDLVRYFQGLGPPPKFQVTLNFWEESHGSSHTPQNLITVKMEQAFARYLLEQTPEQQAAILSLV

TurboID-V5-IRF9 (human) [9] = target: T1, TurboID-V5-IRF9 (human); assay: proximity labelling; TurboID-tagged bait stably expressed in MRC-5/hTERT; serum-starved 20 h; 1000 IU/mL IFN-α2 for 0, 20, 60 or 120 min; 500 μM biotin for the last 15 min; RIPA lysis; streptavidin magnetic beads; label-free mass spectrometry, SAINTexpress against the similarly localized TurboID-GFP control (FC ≥ 4 stringent or FC ≥ 2 relaxed)
TurboID-V5-STAT1 (human) [10] = target: TurboID-V5-STAT1 (human) (UniProt P42224); assay: as above

binding (TurboID-V5-STAT2 (human) [5]): binds
Substance: USP9X (from UniProt Q93008 1-2554) (enzyme)

binding (TurboID-V5-STAT1 (human) [6]): binds
binding (TurboID-V5-STAT2 (human) [7]): binds
Substance: DNAJA2 (from UniProt O60884 1-412)

binding (TurboID-V5-STAT1 (human) [10]): binds
Substance: ELAVL1 (from UniProt Q15717 1-326)

Second part, the substance before the results:

Substance: IL6ST (from UniProt P40189 23-918) (receptor)
binding [1]: binds
binding [2]: binds
binding [3]: binds
binding [4]: binds

Substance: CNOT1 (from UniProt A5YKK6 1-2376)
binding (TurboID-V5-IRF9 (human) [8]): binds
binding (TurboID-V5-IRF9 (human) [9]): binds

Substance: EP400 (from UniProt Q96L91 1-3159)
binding (TurboID-V5-STAT1 (human) [10]): binds
binding (TurboID-V5-STAT2 (human) [5]): binds

Substance: KLC2 (from UniProt Q9H0B6 1-622)
binding (TurboID-V5-STAT2 (human) [7]): binds
